Laboratory results: patent publication US20220153854A1
Results are given in words; binding and its absence hold for the method and conditions named. Some results given as binding are weak or reduced against the parent protein; the word gives no strength.

By UniProt entry, the sequences of proteins in these tests, tags left out. Residues count along the entry.
UniProt P35225, residues 35-146: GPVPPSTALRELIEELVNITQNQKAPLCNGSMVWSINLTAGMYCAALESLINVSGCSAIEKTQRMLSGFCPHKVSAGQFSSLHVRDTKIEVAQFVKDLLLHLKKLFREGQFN

Legend:
[1] = target: cyno OX40L (cynomolgus monkey) (UniProt G7NVH7); experiment: Gyrolab in-solution affinity
[2] = target: human IL-13 (human) (UniProt P35225); experiment: Gyrolab in-solution affinity
[3] = target: human IL-13 (human) (UniProt P35225); experiment: flow cytometry on CHO-Ki cells expressing human OX40L
[4] = target: human IL-13 (human) (UniProt P35225); experiment: flow cytometry on CHO-KI cells expressing human OX40L, 100 nM construct, biotinylated IL-13 titrated, 30 µM HSA
[5] = target: human IL-13 (human) (UniProt P35225); experiment: flow cytometry on CHO-KI cells expressing human OX40L loaded with 100 nM F027100187, dilution series of soluble human IL-13 in the presence of 30 uM HSA (bridging / simultaneous binding; x axis printed as 'Concentration human IL-13-Fc (M)', text says biotinylated IL-13)

Measured: binding

B1: ISVD construct F027100187 (protein)
chain: DVQLVESGGGVVQPGGSLRLSCAASRSIGRYDRMGWYRHRPGEPRELVATITGGSSINYGDSVKGRFTISIDNSKNTVYLQMNSLRPEDTALYYCNFNKYQISRDTWGQGTLVTVSSGGGGSGGGSEVQLVESGGGVVQPGGSLRLSCAASGRTFSSYRMGWFRQAPGKEREFVAALSGDGYSTYTANSVKGRFTISRDNSKNTVYLQMNSLRPEDTALYYCAAKLQYVSGWSYDYPYWGQGTLVTVSSGGGGSGGGSEVQLVESGGGVVQPGGSLRLSCAASGFTFRSFGMSWVRQAPGKGPEWVSSISGSGSDTLYADSVKGRFTISRDNSKNTLYLQMNSLRPEDTALYYCTIGGSLSRSSQGTLVTVSSGGGGSGGGSEVQLVESGGGVVQPGGSLRLSCAASGFTFNNYAMKWVRQAPGKGLEWVSSITTGGGSTDYADSVKGRFTISRDNSKNTLYLQMNSLRPEDTALYYCANVPFGYYSEHFSGLSFDYRGQGTLVTVSSA
binds: [1] | [2] | [3] | [4] | [5]
